In patent publication US20260256792A1, “TREATMENT OF CHRONIC SPONTANEOUS URTICARIA BY ADMINISTERING (R)-2-[3-[4-AMINO-3-(2-FLUORO-4-PHENOXY-PHENYL)PYRAZOLO[3,4-D]PYRIMIDIN-1-YL]PIPERIDINE-1-CARBONYL]-4-METHYL-4-[4-(OXETAN-3-YL)PIPERAZIN-1-YL]PENT-2-ENENITRILE” (priority 2023, published 2026):
This continues a long series; more values of the same kind are listed elsewhere.

Test system: moderate-to-severe chronic spontaneous urticaria (CSU)
Assay: Phase 2 CSU study: urticaria activity score over 7 days (UAS7)
Assay type: in vivo, human
Parameters: key to UAS7 Change from baseline LS Mean (SE): UAS7 points; daily UAS score ranges 0–6 points/day, over 7 days
Conditions: for UAS7 % Change difference for rilzabrutinib vs. placebo LS Mean (95% CI) / UAS7 % Change from baseline LS Mean (SE) / UAS7 Change difference for rilzabrutinib vs. placebo LS Mean (95% CI) / UAS7 Change from baseline LS Mean (SE): Omalizumab-Naïve Population; for Change from Baseline in UAS7 at Week 12: LS Mean Diff vs. placebo (95% CI): Omalizumab-Naïve, Age group (years) ≥65
Source text: The study comprises a 12 week, randomized, double-blind, placebo-controlled, multi-center, dose-ranging efficacy and safety phase, followed by a 40 week open label extension (OLE) phase (see FIG. 1). The study consists of three phases and an optional OLE phase. […] Clinically, CSU is characterized by the spontaneous and recurrent appearance of pruritic hives. The proposed primary endpoints were the UAS7 at Week 12 in EU and EU reference countries and the ISS7 in the US. Regardless of where a participant was from, all assessments were the same. The UAS7 score is a composite score containing both the HSS7 and the ISS7. This allowed a global assessment of the two key components of urticaria: hives and itch. […] The UAS is a validated PRO measure. […] The daily UAS scores range from 0 to 6 point/day. […] Patients were to complete the UAS using the e-diary. […] The following secondary endpoints were to be analyzed using the same approach as for the primary endpoint: • Change from baseline in UAS7 at Week 4 • Change from baseline in UAS7 at Week 12 (for US and US reference countries) • Change from baseline in ISS7 at Week 12 (except US and US reference countries) • Change from baseline in HSS7 at Week 12 The following responder secondary endpoints were to be analyzed using the Cochran-Mantel-Haenszel test adjusted by region: • Proportion of participants with UAS7<6 at Week 12 • Proportion of participants with UAS7=0 at Week 12 Participants who received selected prohibited medications and/or rescue medications were to be considered as non-responders for time points after the medication usage. For other participants, all available data including those collected during the off-treatment period were to be used to determine the responder/non-responder status. Missing data were to be considered as non-responders.

CC(C)(C=C(C#N)C(=O)N1CCC[C@@H](n2nc(-c3ccc(Oc4ccccc4)cc3F)c3c(N)ncnc32)C1)N1CCN(C2COC2)CC1 [rilzabrutinib, (R)-2-[3-[4-amino-3-(2-fluoro-4-phenoxy-phenyl)pyrazolo[3,4-d]pyrimidin-1-yl]piperidine-1-carbonyl]-4-methyl-4-[4-(oxetan-3-yl)piperazin-1-yl]pent-2-enenitrile]
UAS7 % Change difference for rilzabrutinib vs. placebo LS Mean (95% CI) (400 mg BID, Week 8): −22.63% | UAS7 % Change from baseline LS Mean (SE) (400 mg BID, Week 8): −53.47 (6.30) % | UAS7 Change difference for rilzabrutinib vs. placebo LS Mean (95% CI) (400 mg BID, Week 8): −5.54 | UAS7 Change from baseline LS Mean (SE) (400 mg BID, Week 8): −15.47 (1.87) | UAS7 % Change difference for rilzabrutinib vs. placebo LS Mean (95% CI) (400 mg BID, Week 9): −25.82% | UAS7 % Change from baseline LS Mean (SE) (400 mg BID, Week 9): −52.38 (6.34) % | UAS7 Change difference for rilzabrutinib vs. placebo LS Mean (95% CI) (400 mg BID, Week 9): −6.16 | UAS7 Change from baseline LS Mean (SE) (400 mg BID, Week 9): −14.84 (1.91) | UAS7 % Change difference for rilzabrutinib vs. placebo LS Mean (95% CI) (400 mg BID, Week 10): −21.17% | UAS7 % Change from baseline LS Mean (SE) (400 mg BID, Week 10): −51.13 (6.68) % | UAS7 Change difference for rilzabrutinib vs. placebo LS Mean (95% CI) (400 mg BID, Week 10): −5.22 | UAS7 Change from baseline LS Mean (SE) (400 mg BID, Week 10): −14.89 (2.00) | UAS7 % Change difference for rilzabrutinib vs. placebo LS Mean (95% CI) (400 mg BID, Week 11): −21.65% | UAS7 % Change from baseline LS Mean (SE) (400 mg BID, Week 11): −49.86 (6.78) % | UAS7 Change difference for rilzabrutinib vs. placebo LS Mean (95% CI) (400 mg BID, Week 11): −5.29 | UAS7 Change from baseline LS Mean (SE) (400 mg BID, Week 11): −14.56 (1.97) | UAS7 % Change difference for rilzabrutinib vs. placebo LS Mean (95% CI) (400 mg QPM, Week 5): 0.93% | UAS7 % Change from baseline LS Mean (SE) (400 mg QPM, Week 5): −31.92 (5.50) % | UAS7 Change difference for rilzabrutinib vs. placebo LS Mean (95% CI) (400 mg QPM, Week 5): 0.36 | UAS7 Change from baseline LS Mean (SE) (400 mg QPM, Week 5): −10.08 (1.67) | UAS7 % Change difference for rilzabrutinib vs. placebo LS Mean (95% CI) (400 mg QPM, Week 6): −6.75% | UAS7 % Change from baseline LS Mean (SE) (400 mg QPM, Week 6): −33.30 (6.14) % | UAS7 Change difference for rilzabrutinib vs. placebo LS Mean (95% CI) (400 mg QPM, Week 6): −1.28 | UAS7 % Change difference for rilzabrutinib vs. placebo LS Mean (95% CI) (400 mg QPM, Week 7): −5.67% | UAS7 % Change from baseline LS Mean (SE) (400 mg QPM, Week 7): −34.23 (5.85) % | UAS7 Change difference for rilzabrutinib vs. placebo LS Mean (95% CI) (400 mg QPM, Week 7): −1.12 | UAS7 Change from baseline LS Mean (SE) (400 mg QPM, Week 7): −10.55 (1.74) | UAS7 % Change difference for rilzabrutinib vs. placebo LS Mean (95% CI) (400 mg QPM, Week 8): −3.78% | UAS7 % Change from baseline LS Mean (SE) (400 mg QPM, Week 8): −34.61 (6.22) % | UAS7 Change difference for rilzabrutinib vs. placebo LS Mean (95% CI) (400 mg QPM, Week 8): −0.47 | UAS7 Change from baseline LS Mean (SE) (400 mg QPM, Week 8): −10.40 (1.83) | UAS7 % Change difference for rilzabrutinib vs. placebo LS Mean (95% CI) (400 mg QPM, Week 9): −9.34% | UAS7 % Change from baseline LS Mean (SE) (400 mg QPM, Week 9): −35.89 (6.15) % | UAS7 Change difference for rilzabrutinib vs. placebo LS Mean (95% CI) (400 mg QPM, Week 9): −2.36 | UAS7 Change from baseline LS Mean (SE) (400 mg QPM, Week 9): −11.03 (1.86) | UAS7 % Change difference for rilzabrutinib vs. placebo LS Mean (95% CI) (400 mg QPM, Week 10): −7.06% | UAS7 % Change from baseline LS Mean (SE) (400 mg QPM, Week 10): −37.03 (6.40) % | UAS7 Change difference for rilzabrutinib vs. placebo LS Mean (95% CI) (400 mg QPM, Week 10): −1.58 | UAS7 Change from baseline LS Mean (SE) (400 mg QPM, Week 10): −11.25 (1.92) | UAS7 % Change difference for rilzabrutinib vs. placebo LS Mean (95% CI) (400 mg QPM, Week 11): −7.47% | UAS7 % Change from baseline LS Mean (SE) (400 mg QPM, Week 11): −35.67 (6.65) % | UAS7 Change difference for rilzabrutinib vs. placebo LS Mean (95% CI) (400 mg QPM, Week 11): −1.36 | UAS7 Change from baseline LS Mean (SE) (400 mg QPM, Week 11): −10.63 (1.93) | UAS7 % Change difference for rilzabrutinib vs. placebo LS Mean (95% CI) (400 mg TID, Week 5): −19.17% | UAS7 % Change from baseline LS Mean (SE) (400 mg TID, Week 5): −52.02 (5.69) % | UAS7 % Change difference for rilzabrutinib vs. placebo LS Mean (95% CI) (400 mg TID, Week 6): −24.10% | UAS7 % Change from baseline LS Mean (SE) (400 mg TID, Week 6): −50.65 (6.35) % | UAS7 Change difference for rilzabrutinib vs. placebo LS Mean (95% CI) (400 mg TID, Week 6): −5.94 | UAS7 Change from baseline LS Mean (SE) (400 mg TID, Week 6): −15.12 (1.90) | UAS7 % Change difference for rilzabrutinib vs. placebo LS Mean (95% CI) (400 mg TID, Week 7): −24.35% | UAS7 % Change from baseline LS Mean (SE) (400 mg TID, Week 7): −52.91 (6.13) % | UAS7 Change difference for rilzabrutinib vs. placebo LS Mean (95% CI) (400 mg TID, Week 7): −6.37 | UAS7 Change from baseline LS Mean (SE) (400 mg TID, Week 7): −15.80 (1.80) | UAS7 % Change difference for rilzabrutinib vs. placebo LS Mean (95% CI) (400 mg TID, Week 8): −20.07% | UAS7 % Change from baseline LS Mean (SE) (400 mg TID, Week 8): −50.90 (6.49) % | UAS7 Change difference for rilzabrutinib vs. placebo LS Mean (95% CI) (400 mg TID, Week 8): −5.11 | UAS7 Change from baseline LS Mean (SE) (400 mg TID, Week 8): −15.04 (1.96) | UAS7 % Change difference for rilzabrutinib vs. placebo LS Mean (95% CI) (400 mg TID, Week 9): −25.99% | UAS7 % Change from baseline LS Mean (SE) (400 mg TID, Week 9): −52.54 (6.34) % | UAS7 Change difference for rilzabrutinib vs. placebo LS Mean (95% CI) (400 mg TID, Week 9): −7.07 | UAS7 Change from baseline LS Mean (SE) (400 mg TID, Week 9): −15.75 (1.93) | UAS7 % Change difference for rilzabrutinib vs. placebo LS Mean (95% CI) (400 mg TID, Week 10): −24.83% | UAS7 Change difference for rilzabrutinib vs. placebo LS Mean (95% CI) (400 mg TID, Week 10): −6.54 | UAS7 Change from baseline LS Mean (SE) (400 mg TID, Week 10): −16.20 (1.97) | UAS7 % Change difference for rilzabrutinib vs. placebo LS Mean (95% CI) (400 mg TID, Week 11): −25.26% | UAS7 % Change from baseline LS Mean (SE) (400 mg TID, Week 11): −53.47 (6.81) % | UAS7 Change difference for rilzabrutinib vs. placebo LS Mean (95% CI) (400 mg TID, Week 11): −6.58 | UAS7 Change from baseline LS Mean (SE) (400 mg TID, Week 11): −15.86 (1.96) | UAS7 % Change difference for rilzabrutinib vs. placebo LS Mean (95% CI) (400 mg TID, Week 12): −26.61% | UAS7 % Change from baseline LS Mean (SE) (400 mg TID, Week 12): −56.89 (6.92) % | UAS7 Change difference for rilzabrutinib vs. placebo LS Mean (95% CI) (400 mg TID, Week 12): −6.75 | UAS7 Change from baseline LS Mean (SE) (400 mg TID, Week 12): −16.89 (2.04) | Change from Baseline in UAS7 at Week 12: LS Mean Diff vs. placebo (95% CI) (400 mg BID): −23.31 (−51.77, 5.15) | Change from Baseline in UAS7 at Week 12: LS Mean Diff vs. placebo (95% CI) (400 mg TID): −25.27 (−49.57, −0.97)
